## Library screen at single concentrations

Chains of the proteins cited; added tags and fusions are not shown.
UniProt P9WPC5, whole entry: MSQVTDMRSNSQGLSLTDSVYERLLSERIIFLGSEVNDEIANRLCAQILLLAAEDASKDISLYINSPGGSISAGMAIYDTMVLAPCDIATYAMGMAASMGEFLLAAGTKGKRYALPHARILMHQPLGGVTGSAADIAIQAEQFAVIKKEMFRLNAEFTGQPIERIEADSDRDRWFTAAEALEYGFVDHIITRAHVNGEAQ
UniProt P9WPC3, whole entry partner: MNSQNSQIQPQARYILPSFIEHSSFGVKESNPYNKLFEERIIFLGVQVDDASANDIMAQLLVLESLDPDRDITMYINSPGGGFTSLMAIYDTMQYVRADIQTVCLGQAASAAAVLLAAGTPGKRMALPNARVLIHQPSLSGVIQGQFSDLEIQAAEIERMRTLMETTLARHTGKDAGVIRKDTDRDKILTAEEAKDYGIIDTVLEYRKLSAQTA
UniProt P9WNZ1, whole entry: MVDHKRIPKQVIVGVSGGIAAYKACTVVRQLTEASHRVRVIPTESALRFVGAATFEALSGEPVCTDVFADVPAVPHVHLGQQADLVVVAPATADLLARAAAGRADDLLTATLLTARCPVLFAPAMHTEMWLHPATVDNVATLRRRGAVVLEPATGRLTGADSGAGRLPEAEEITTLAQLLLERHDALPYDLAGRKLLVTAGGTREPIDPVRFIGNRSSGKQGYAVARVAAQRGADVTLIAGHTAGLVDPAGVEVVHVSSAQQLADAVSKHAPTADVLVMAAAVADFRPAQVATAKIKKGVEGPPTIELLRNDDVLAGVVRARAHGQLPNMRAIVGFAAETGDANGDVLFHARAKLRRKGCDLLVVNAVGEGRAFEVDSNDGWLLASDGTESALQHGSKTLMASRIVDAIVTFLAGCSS

A: 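ClpP1P2, Mycobacterium tuberculosis (UniProt P9WPC5 and UniProt P9WPC3). Protease assay of ClpP1P2, read by the AMC dye that it sets free. Tested at 50 µM. Direction is inferred from only a few compounds that gave an IC50; most scored high, so higher reads as stronger inhibition. Most other retested compounds had strongly negative values. Of about 69,000 compounds tested this way, about 10 (0.015%) reached 50% or more in at least one test.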
B: 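Enzyme assay of CoaBC with a phosphate dye (Biomol Green) read at 650 nm. Target: Coenzyme A biosynthesis protein CoaBC, Mycobacterium tuberculosis (UniProt P9WNZ1). Tested at 30 µM. Higher reads as stronger inhibition, judged from the few compounds that gave an IC50. Most strong results did not repeat in a second test. About 67,000 compounds were tested under these conditions; 0.06% (about 40) showed 50% or more at least once.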

Results are given as percent effect.
The controls that fix the scale are not given in the record; negative values are as filed.
This is an unselected part of the compounds tested.
A dash means the value is not listed here; it may have been measured.

compound	A	B
CN(C)CCNc1cc(-c2ccccc2C(N)=O)c2cc[nH]c2n1	-11.39	-0.6165
Cc1cc(C(=O)N2CCCC3(C=Cc4ccccc4O3)CC2)cc(=O)[nH]1 (stereo unspecified)	-3.585	-12.8
CC(C)CNC(=O)[C@H]1C[C@@H]2CN(C(=O)Nc3ccc(F)cc3)C[C@H]1O2	-1.067	4.762
CC(=O)Oc1ccnc(C(F)(F)F)c1C(C)=O	-4.291	0.8147
Cc1cc(C)c(CNC(=O)Cc2ccc3c(c2)CCCC3)c(=O)[nH]1	-11.3	2.551
CCN(Cc1ccc2c(c1)OCO2)Cc1nc(C)no1	8.993	2.966
Cc1cc(C(O)CCNC(=O)COc2ccccc2C)c(C)o1 (stereo unspecified)	-12.83	3.594
COc1ccc(CN2CCN(CC3CC3)[C@@H]3CS(=O)(=O)C[C@@H]32)cc1C	4.05	2.828
CC(C)CN1CCc2[nH]cnc2C12CCN(C(=O)c1cc[nH]n1)CC2	3.221	-0.615
O=C(c1cnccn1)N1C[C@@H](c2ccccc2)[C@@]2(CCNC2=O)C1	-3.807	-
Cc1ccc(CN2CCOC3(CCN(C(=O)C4CC=CC4)CC3)C2)cc1	-7.893	3.171
Cc1ccc(-c2cc(N)c(=O)n(CC(=O)NCC3CCCCC3)n2)s1	5.904	-3.333
CCC(=O)Nc1nnc(CCOc2cccc(OC)c2)s1	4.877	0.6729
O=S(=O)(Cc1cccc2cccnc12)NC(CO)c1ccco1 (stereo unspecified)	0.6211	4.912
Cc1ccc2cccc(C(=O)NCC3CCN(C(C)C)C3)c2n1 (stereo unspecified)	-4.759	1.923
COc1ccc(NC(=O)CCC2CCCN(Cc3ncon3)C2)c(C)c1 (stereo unspecified)	6.615	-14.73
CN1CCN(CC(CC(=O)Nc2ccc(Cl)cc2)C(=O)O)CC1 (stereo unspecified)	11.63	-6.368
CCn1cc(CN2CCCC2c2nc(-c3ccccc3)no2)cc1C#N (stereo unspecified)	-31.45	5.342
Cc1ccccc1C(=O)NC1CCN(c2cnn(C)c2)C1=O (stereo unspecified)	-9.96	0.8584
O=C([C@H]1C[C@@H]2CCN(c3cccc(F)c3)C[C@H]2O1)N1CCCCO1	-35.21	3.329
COC(=O)NCC(=O)NCC(C)(C)c1cccc(Br)c1	-6.963	3.614
Cc1nc(C)n(CC2CCCN2CC(=O)Nc2cc(C)on2)n1 (stereo unspecified)	3.276	-8.82
Cc1ccc(O[C@@H]2C[C@H]3CN(c4ncc(F)cn4)CCN3C2)cc1	-1.933	-0.1212
CC(=O)NCC(=O)N1CCC2(CC1)C(=O)N(CC1CC1)c1ccccc12	-2.178	0.6435
Cc1cc(C)nc(C2CCN(C(=O)c3cnc(N(C)C)nc3)C2)n1 (stereo unspecified)	-6.893	2.92
COC[C@]1(O)CCN(C2CCN(c3ccc(Cl)cc3)CC2)CC1(C)C	6.307	-8.261
CCS(=O)(=O)N1CCC2(CCN(CC(=O)N(C)C)C2=O)CC1	1.924	2.188
O=C(Nc1ccc(S(=O)(=O)Nc2ccccc2)cc1)N1CCCC1	-2.494	-6.855
Clc1ccc(N2CCC(OCC3CCCCO3)CC2)nc1 (stereo unspecified)	-21.22	4.403
CN1C(=O)C2(CCN(C(=O)c3cccnc3)CC2)c2cccc(F)c21	3.734	-0.6342
CC(=O)N1CCO[C@@H]2CN(C(=O)c3ccc4ccccc4c3)CC[C@@H]2C1	-5.101	-2.24
Cc1[nH]nc(CCC(=O)NCC2CCCN(C3CCCC3)C2)c1C (stereo unspecified)	12.44	0.9709
CCOCC(=O)N1CCC2(CC1)CC(c1ccccc1)CO2 (stereo unspecified)	-7.511	4.084
COC(=O)NCCCC(=O)NC1(c2cccc(Cl)c2)CC1	0.2777	-0.2439
Cc1ccsc1C(=O)N1CCCN(Cc2cscn2)CC1	-47.02	1.305
Cc1cccc(C)c1OCCNC(=O)C(C)n1cncn1 (stereo unspecified)	-4.1	1.837
CC(C)c1nc2c(n1C)CCN(Cc1nc(-c3ccoc3)no1)C2	-43.72	3.827
O=C(c1ccn(-c2ccccc2)n1)N1CCCC(n2cccn2)C1 (stereo unspecified)	-23.7	1.567
CCc1ccc(CNC[C@H]2C[C@@H](CO)N(C)[C@H]2c2ccccc2F)o1	-0.0394	-7.332
CNc1cc(C2CCCN2C(=O)CCc2cnn(C)c2C)ccn1 (stereo unspecified)	1.826	-1.663
COCCNS(=O)(=O)c1c(C)sc2ccccc12	2.017	5.765
c1ccc(CNc2ccccc2N2CCCC2)nc1	-7.628	1.408

For reference, 3 entries once more:

compound,A,B
Cc1cccc(C)c1OCCNC(=O)C(C)n1cncn1 (stereo unspecified),-4.1,1.837
CC(C)CN1CCc2[nH]cnc2C12CCN(C(=O)c1cc[nH]n1)CC2,3.221,-0.615
CNc1cc(C2CCCN2C(=O)CCc2cnn(C)c2C)ccn1 (stereo unspecified),1.826,-1.663

Measurements from “University of Dundee, Small-Polar-MMV Screening Library” (2021), ChEMBL document CHEMBL3988442.